Results as given in patent EP4574147A1, “COMPOSITION FOR PREVENTING, AMELIORATING, OR TREATING CANCER COMPRISING STEPPOGENIN AS ACTIVE INGREDIENT” (Kyungpook National University Industry-Academic Cooperation …, priority 2022, dated 2024).
For at least one compound, name, drawing or mass did not settle the structure.

Key:
[1] = test system: Lewis lung carcinoma (LLC)-allografted tumor models; assay: Lewis lung carcinoma allograft tumor model with immunohistochemical analysis; assay type: in vivo, C57BL/6J mice; settings: 17-AAG 25 mg/kg
Experimental: Six-week-old adult male C57BL/6J mice (SLC, Japan) were used and housed in a specific pathogen-free facility with an individual ventilation system at Kyungpook National University.
To manufacture Lewis lung carcinoma (LLC)-allografted tumor models, LLC cell suspensions (5 × 10^5 cells in 200 µL of serum-free culture medium) were subcutaneously transplanted into the dorsal flank area of 6-week-old male C57BL/6J mice. After inoculating the LLC cells, the mice were administered 17-AAG (25 mg/kg) or steppogenin (2 mg/kg) via intraperitoneal injection at various time points. Next, tumor volumes were measured according to the following formula: V = 0.5 × A × B^2, where A and B represent the longest and shortest dimensions, respectively. Finally, the mice were anesthetized and tissues were collected for further analysis.
For immunohistochemical analysis, collected tumor or tissue samples were fixed in 4% paraformaldehyde and embedded in tissue-freezing medium (Leica, Wetzlar, Germany). Frozen blocks were cut into 10 µm sample sections, blocked with 3% BSA in PBST (0.3% Triton X-100 in PBS), and incubated overnight at 4 °C with appropriate primary antibodies. Primary antibodies were as follows: anti-CD34 (Boster Bio, CA, USA), anti-DLL4 (R&D Systems, MN, USA), anti-pimonidazole (Hypoxyprobe-1, HPI, MA, USA), anti-CD3 (Abcam), anti-CD4 (Invitrogen), and anti-CD8 (Invitrogen). After several washes, the samples were incubated with recommended fluorophore-tagged secondary antibodies for 1 hour at room temperature. Next, cell nuclei were stained using Antifade Mounting Medium containing DAPI (Vector Laboratories, Burlingame, CA). Immunofluorescence images were acquired using a Zeiss confocal microscope (Carl Zeiss, Germany). Next, pimonidazole hydrochloride (60 mg/kg; Hypoxyprobe-1, HPI) was injected intravenously through the tail vein of mice and anesthetized 90 minutes later. Finally, tumor tissues were collected for further analysis.
To determine whether steppogenin induces vascular normalization, T-cell infiltration in tumor tissues was examined.

[2] = test system: HIF-1α; assay: Immunofluorescence staining of intranuclear HIF-1α; assay type: cell-based, human; settings: A549 cells, hypoxia 4 h, immunofluorescence (FIG. 4b)
[3] = immunohistochemical staining, compared to control group, steppogenin 2 mg/kg (FIG. 6c)

C=CCNC1=C2C[C@@H](C)C[C@H](OC)[C@H](O)[C@@H](C)/C=C(\C)[C@H](OC(N)=O)[C@@H](OC)/C=C\C=C(/C)C(=O)NC(=CC1=O)C2=O [Compound 17-AAG, tanespimycin, reference compound]
tumor growth ([1]; steppogenin 2 mg/kg, intraperitoneal, days 7, 9, 11, 13, 15 (FIG. 6a)): significantly inhibited
HIF-1α expression level in tumors [1, 3]: significantly reduced
hypoxic region in tumors [1, 3]: significantly reduced
intranuclear expression of HIF-1α [2]: decreased
